Measured values taken from PubChem BioAssay AID1671190 (National Center for Advancing Translational Sciences (NCATS), 2021).
Out of some 580,000 compounds screened, about 6,100 (1.1%) were called active. This list was built around the results that the source calls inconclusive (neither active nor inactive); the mix of calls is not that of the screen. Calls follow the shape of the dose curve; as a rule, active = well fitted inhibition curve with a large enough effect; inconclusive = small, poorly fitted or top-dose-only effect, or another doubt; inactive = no such curve, though single readings can be large or run the other way. Where the call is inconclusive, the potency comes from a doubtful curve fit.

Protein sequences, listed by entry. Tags and fused reporters are not part of them.
UniProt P18054, whole entry, looked up: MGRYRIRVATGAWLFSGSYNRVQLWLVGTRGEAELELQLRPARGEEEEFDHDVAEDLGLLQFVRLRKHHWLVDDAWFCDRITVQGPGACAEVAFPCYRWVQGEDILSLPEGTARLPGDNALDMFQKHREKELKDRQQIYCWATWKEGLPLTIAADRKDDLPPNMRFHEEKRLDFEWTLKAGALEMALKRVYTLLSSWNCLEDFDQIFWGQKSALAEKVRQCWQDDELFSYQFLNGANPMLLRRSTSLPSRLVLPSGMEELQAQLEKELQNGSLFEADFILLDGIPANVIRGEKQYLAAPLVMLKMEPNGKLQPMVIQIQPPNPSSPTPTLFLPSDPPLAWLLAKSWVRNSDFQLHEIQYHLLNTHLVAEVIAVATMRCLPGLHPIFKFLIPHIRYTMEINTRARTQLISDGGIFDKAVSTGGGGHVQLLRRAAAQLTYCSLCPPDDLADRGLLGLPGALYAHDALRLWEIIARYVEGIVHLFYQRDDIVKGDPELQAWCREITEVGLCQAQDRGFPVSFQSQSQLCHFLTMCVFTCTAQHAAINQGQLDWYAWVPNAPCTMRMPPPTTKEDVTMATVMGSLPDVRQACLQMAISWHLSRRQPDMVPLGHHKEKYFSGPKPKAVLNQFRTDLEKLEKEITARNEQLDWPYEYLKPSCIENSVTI

target: Polyunsaturated fatty acid lipoxygenase ALOX12 (Homo sapiens) (UniProt P18054); assay: Primary qHTS assay for inhibitors of human arachidonate 12S-lipoxygenase (ALOX12): Round 2; details: purified 12hLO, xylenol orange hydroperoxide absorbance; activity change, negative = inhibition: at 108 µM (top of the series) unless noted
In short: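 Purified human 12hLO (150 nM final) in 25 mM Hepes, 0.01% Triton X-100, pH 7.0 was preincubated 15 min at room temperature with compound. Then 40 uM arachidonic acid was added, 30 min. Hydroperoxide was read by Fe-XO absorbance ratio 573/405 nm.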
% is scaled to controls: 0 for no effect and ±100 for the full control effect; potency is read from the fitted curve at half-maximal effect.

Structure (SMILES)	activity change, negative = inhibition	Potency
CC1CCC(NC(=O)c2ccccc2S(C)(=O)=O)CC1 (centres undefined)	inactive: -4.36%	–
CCC(c1c(C)[nH]oc1=O)c1c(C)[nH]oc1=O	–	inconclusive: 5.01 µM [inhibitor, full curve, poor fit]
O=C(Nc1cccc(Br)c1)c1ccccc1OCC1CCCO1 (centres undefined)	inactive: -2.12%	–
CC(=O)n1cc(/C=N/NC(N)=S)c2ccccc21	–	inconclusive: 25.1 µM [inhibitor, partial curve, poor fit]
CC(C)CN(CC(C)C)C(=O)CC(c1ccccc1)c1ccccc1	inactive: 11.6%	–
CC(=O)c1cccc2c1OC(C)C(=O)N2Cc1ccc(Cl)cc1 (centres undefined)	–	inconclusive: 50.1 µM [inhibitor, partial curve, poor fit]
COC(=O)c1ccc(CN2CCC(Oc3ccc(C(=O)N4CCCCC4)cc3)CC2)cc1	inactive: -7.21%	–
COc1ccc(CNc2nc(SCc3cc(=O)n4cc(Cl)ccc4n3)nc3ccccc23)cc1	inactive: -7%	–
Cc1cccn2c(=O)c3cc(C(=O)N4CCOCC4)n(C)c3nc12	inactive: 1.63%	–
CCc1ccc(-n2c(=O)c3c4c(sc3n(CC(=O)N3CCCCC3CC)c2=O)CCC4)cc1 (centres undefined)	–	inconclusive: 100 µM [inhibitor, partial curve, poor fit]
CCCCNC(=O)c1nc(C2CCN(S(=O)(=O)c3ccc(C(F)(F)F)cc3)CC2)oc1-c1ccccc1	–	inconclusive: 100 µM [inhibitor, single point]
C=CCC1=C/C(=C\c2c(N)n3nc(CC(=O)N4CCCC4)sc3nc2=O)C=C(OC)C1=O	–	inconclusive: 44.7 µM [inhibitor, partial curve, poor fit]
O=C(O)CN1C(=O)/C(=C\c2cc(Br)ccc2OCc2ccccc2Cl)SC1=S	–	inconclusive: 5.62 µM [inhibitor, full curve, poor fit]
COc1cccc(C2=NN3C(C2)c2cccc(OC)c2OC32CCN(S(C)(=O)=O)CC2)c1 (centres undefined)	–	inconclusive: 112 µM [inhibitor, single point]
O=C(Nc1ccc2c(c1)OCCO2)C1=CCN(Cc2ccccc2F)CC1	–	inconclusive: 31.6 µM [inhibitor, full curve, poor fit]
COC(=O)c1sc2nc3c(cc2c1N)COC(C)(C)C3	inactive: 0.58%	–
COc1ccc(Cc2c(-c3ccco3)nc3ccc(Br)cn23)c(C)c1	–	inconclusive: 50.1 µM [inhibitor, partial curve, poor fit]
O=S1(=O)c2c(F)cccc2O[C@@H](COCc2ccccc2)CN1CCc1ccc(F)cc1	inactive: 0.574%	–
CSc1ncc(C(=O)NCc2ccccc2)c(N)n1	–	inconclusive: 31.6 µM [inhibitor, single point]
